Measurements from US9625458B2, “Biosensor” (priority 2002, dated 2017).

Assay: Fluorescence emission spectra without and with saturating ligand (wavelength shift, ΔIstd, ΔRmax)
Settings: for λmax,apo (nm) / λmax,sat (nm): emission maximum; for λmax,apo (nm): absence of ligand; for λmax,sat (nm): saturating ligand (ligand column); for ΔIstd: standard intensity change; for ΔIstd / ΔRmax: unbound vs ligand-saturated; for ΔRmax: standard ratiometric change
Method: Fluorimetry. All measurements were conducted with an SLM Aminco-Bowman series 2 fluorimeter, with sample stirring at 25° C. Fluorescence emission spectra were acquired with excitation and emission slit widths of 4 and 8 nm, respectively. Photomultiplier tube potential was maintained between 400 and 800 volts. Protein concentrations were in the range of 50 to 1000 nM. Fluorophore-specific excitation was at the following approximate wavelengths: tryptophan, 290 nm; acrylodan, 390 nm; fluorescein, 485 nm; pyrene, 340 nm; NBD and NBDE, 490 nm; JPW4039, 485 nm; JPW4042, 470 nm; JPW4045, 470 nm.
Assessment of fluorescent biosensor function. Fluorescence emission spectra of bPBP-fluorophore conjugates were recorded in the absence and presence of saturating ligand concentrations. Spectral changes were characterized by four parameters: wavelength shift (the difference between the wavelengths of emission maximum in the unbound and ligand-saturated states), direction of intensity change (increase or decrease in intensity at the wavelengths of maximum emission in the two states), standard intensity change (ΔIstd), and standard ratiometric change (ΔR). ΔIstd is defined as the normalized intensity change relative to the average intensity, determined at the wavelength mid-point between the two emission maxima:
[formula] where λstd=(λmax, unbound+λmax, saturated)/2 and I1, I2 are the fluorescence intensities at λstd of each spectrum respectively (FIG. 4A). ΔR is defined in terms of two emission bands, A1 ([λ1, λ2]) and A2 ([λ3, λ4]) (FIG. 4B):
[formula] where ^∘A1, […] the areas in the absence of ligand, and ^∞A1, ^∞A2 the areas in the presence of saturating ligand. A computer program was used to enumerate ΔR for all possible pairs of wavelength bands in the two spectra, to identify the optimal sensing condition, defined as the maximum value of ΔR. Adjustable parameters of the algorithm, and their values used for ΔRmax quantities reported here, are: step size (2 nm), step width (10 nm), minimum integration area limit (fraction of total: 0.1), and maximum integration area limit (fraction of total: 1).

| Molecule | ΔIstd (standard intensity change) (apo vs saturating ligand at λstd) | λmax,apo (nm) | λmax,sat (nm) | ΔIstd | ΔRmax |
| --- | --- | --- | --- | --- | --- |
| Fe(III) BP E203C-acrylodan (conjugate, UniProt P35755 24-332, looked up, variant E203C, acrylodan label) Iron-utilization periplasmic …: DITVYNGQHKEAATAVAKAFEQETGIKVTLNSGKSEQLAGQLKEEGDKTPADVFYTEQTATFADLSEAGLLAPISEQTIQQTAQKGVPLAPKKDWIALSGRSRVVVYDHTKLSEKDMEKSVLDYATPKWKGKIGYVSTSGAFLEQVVALSKMKGDKVALNWLKGLKENGKLYAKNSVALQAVENGEVPAALINNYYWYNLAKCKGVENLKSRLYFVRHQDPGALVSYSGAAVLKASKNQAEAQKFVDFLASKKGQEALVAARAEYPLRADVVSPFNLEPYEKLEAPVVSATTAQDKEHAIKLIEEAGLK | 0.4 | – | – | – | – |
| Fe(III) BP E203C JPW4039 (conjugate, UniProt P35755 24-332, looked up, variant E203C, JPW4039 dye label) Iron-utilization periplasmic …: DITVYNGQHKEAATAVAKAFEQETGIKVTLNSGKSEQLAGQLKEEGDKTPADVFYTEQTATFADLSEAGLLAPISEQTIQQTAQKGVPLAPKKDWIALSGRSRVVVYDHTKLSEKDMEKSVLDYATPKWKGKIGYVSTSGAFLEQVVALSKMKGDKVALNWLKGLKENGKLYAKNSVALQAVENGEVPAALINNYYWYNLAKCKGVENLKSRLYFVRHQDPGALVSYSGAAVLKASKNQAEAQKFVDFLASKKGQEALVAARAEYPLRADVVSPFNLEPYEKLEAPVVSATTAQDKEHAIKLIEEAGLK | – | 599 | 592 | 0.09 | 0.37 |
| Fe(III) BP E203C Acrylodan (conjugate, UniProt P35755 24-332, looked up, variant E203C, acrylodan label) Iron-utilization periplasmic …: DITVYNGQHKEAATAVAKAFEQETGIKVTLNSGKSEQLAGQLKEEGDKTPADVFYTEQTATFADLSEAGLLAPISEQTIQQTAQKGVPLAPKKDWIALSGRSRVVVYDHTKLSEKDMEKSVLDYATPKWKGKIGYVSTSGAFLEQVVALSKMKGDKVALNWLKGLKENGKLYAKNSVALQAVENGEVPAALINNYYWYNLAKCKGVENLKSRLYFVRHQDPGALVSYSGAAVLKASKNQAEAQKFVDFLASKKGQEALVAARAEYPLRADVVSPFNLEPYEKLEAPVVSATTAQDKEHAIKLIEEAGLK | – | 518 | 518 | 0.41 | 0.95 |
| Fe(III) BP E203C Fluorescein (conjugate, UniProt P35755 24-332, looked up, variant E203C, fluorescein label) Iron-utilization periplasmic …: DITVYNGQHKEAATAVAKAFEQETGIKVTLNSGKSEQLAGQLKEEGDKTPADVFYTEQTATFADLSEAGLLAPISEQTIQQTAQKGVPLAPKKDWIALSGRSRVVVYDHTKLSEKDMEKSVLDYATPKWKGKIGYVSTSGAFLEQVVALSKMKGDKVALNWLKGLKENGKLYAKNSVALQAVENGEVPAALINNYYWYNLAKCKGVENLKSRLYFVRHQDPGALVSYSGAAVLKASKNQAEAQKFVDFLASKKGQEALVAARAEYPLRADVVSPFNLEPYEKLEAPVVSATTAQDKEHAIKLIEEAGLK | – | 523 | 522 | 0.33 | 0.15 |
| Fe(III) BP E203C NBD (conjugate, UniProt P35755 24-332, looked up, variant E203C, NBD label) Iron-utilization periplasmic …: DITVYNGQHKEAATAVAKAFEQETGIKVTLNSGKSEQLAGQLKEEGDKTPADVFYTEQTATFADLSEAGLLAPISEQTIQQTAQKGVPLAPKKDWIALSGRSRVVVYDHTKLSEKDMEKSVLDYATPKWKGKIGYVSTSGAFLEQVVALSKMKGDKVALNWLKGLKENGKLYAKNSVALQAVENGEVPAALINNYYWYNLAKCKGVENLKSRLYFVRHQDPGALVSYSGAAVLKASKNQAEAQKFVDFLASKKGQEALVAARAEYPLRADVVSPFNLEPYEKLEAPVVSATTAQDKEHAIKLIEEAGLK | – | 550 | 548 | 0.31 | 0.21 |
| Fe(III) BP K202C JPW4039 (conjugate, UniProt P35755 24-332, looked up, variant K202C, JPW4039 dye label) Iron-utilization periplasmic …: DITVYNGQHKEAATAVAKAFEQETGIKVTLNSGKSEQLAGQLKEEGDKTPADVFYTEQTATFADLSEAGLLAPISEQTIQQTAQKGVPLAPKKDWIALSGRSRVVVYDHTKLSEKDMEKSVLDYATPKWKGKIGYVSTSGAFLEQVVALSKMKGDKVALNWLKGLKENGKLYAKNSVALQAVENGEVPAALINNYYWYNLACEKGVENLKSRLYFVRHQDPGALVSYSGAAVLKASKNQAEAQKFVDFLASKKGQEALVAARAEYPLRADVVSPFNLEPYEKLEAPVVSATTAQDKEHAIKLIEEAGLK | – | 602 | 602 | 0.24 | 0.36 |
| Fe(III) BP K202C Acrylodan (conjugate, UniProt P35755 24-332, looked up, variant K202C, acrylodan label) Iron-utilization periplasmic …: DITVYNGQHKEAATAVAKAFEQETGIKVTLNSGKSEQLAGQLKEEGDKTPADVFYTEQTATFADLSEAGLLAPISEQTIQQTAQKGVPLAPKKDWIALSGRSRVVVYDHTKLSEKDMEKSVLDYATPKWKGKIGYVSTSGAFLEQVVALSKMKGDKVALNWLKGLKENGKLYAKNSVALQAVENGEVPAALINNYYWYNLACEKGVENLKSRLYFVRHQDPGALVSYSGAAVLKASKNQAEAQKFVDFLASKKGQEALVAARAEYPLRADVVSPFNLEPYEKLEAPVVSATTAQDKEHAIKLIEEAGLK | – | 505 | 503 | 0.37 | 1.17 |
| Fe(III) BP K202C Fluorescein (conjugate, UniProt P35755 24-332, looked up, variant K202C, fluorescein label) Iron-utilization periplasmic …: DITVYNGQHKEAATAVAKAFEQETGIKVTLNSGKSEQLAGQLKEEGDKTPADVFYTEQTATFADLSEAGLLAPISEQTIQQTAQKGVPLAPKKDWIALSGRSRVVVYDHTKLSEKDMEKSVLDYATPKWKGKIGYVSTSGAFLEQVVALSKMKGDKVALNWLKGLKENGKLYAKNSVALQAVENGEVPAALINNYYWYNLACEKGVENLKSRLYFVRHQDPGALVSYSGAAVLKASKNQAEAQKFVDFLASKKGQEALVAARAEYPLRADVVSPFNLEPYEKLEAPVVSATTAQDKEHAIKLIEEAGLK | – | 520 | 521 | 0.30 | 0.09 |
| Fe(III) BP K85C JPW4039 (conjugate, UniProt P35755 24-332, looked up, variant K85C, JPW4039 dye label) Iron-utilization periplasmic …: DITVYNGQHKEAATAVAKAFEQETGIKVTLNSGKSEQLAGQLKEEGDKTPADVFYTEQTATFADLSEAGLLAPISEQTIQQTAQCGVPLAPKKDWIALSGRSRVVVYDHTKLSEKDMEKSVLDYATPKWKGKIGYVSTSGAFLEQVVALSKMKGDKVALNWLKGLKENGKLYAKNSVALQAVENGEVPAALINNYYWYNLAKEKGVENLKSRLYFVRHQDPGALVSYSGAAVLKASKNQAEAQKFVDFLASKKGQEALVAARAEYPLRADVVSPFNLEPYEKLEAPVVSATTAQDKEHAIKLIEEAGLK | – | 593 | 591 | 0.05 | 0.10 |
| Fe(III) BP K85C JPW4042 (conjugate, UniProt P35755 24-332, looked up, variant K85C, JPW4042 dye label) Iron-utilization periplasmic …: DITVYNGQHKEAATAVAKAFEQETGIKVTLNSGKSEQLAGQLKEEGDKTPADVFYTEQTATFADLSEAGLLAPISEQTIQQTAQCGVPLAPKKDWIALSGRSRVVVYDHTKLSEKDMEKSVLDYATPKWKGKIGYVSTSGAFLEQVVALSKMKGDKVALNWLKGLKENGKLYAKNSVALQAVENGEVPAALINNYYWYNLAKEKGVENLKSRLYFVRHQDPGALVSYSGAAVLKASKNQAEAQKFVDFLASKKGQEALVAARAEYPLRADVVSPFNLEPYEKLEAPVVSATTAQDKEHAIKLIEEAGLK | – | 638 | 641 | 0.03 | 0.28 |
| Fe(III) BP K85C Fluorescein (conjugate, UniProt P35755 24-332, looked up, variant K85C, fluorescein label) Iron-utilization periplasmic …: DITVYNGQHKEAATAVAKAFEQETGIKVTLNSGKSEQLAGQLKEEGDKTPADVFYTEQTATFADLSEAGLLAPISEQTIQQTAQCGVPLAPKKDWIALSGRSRVVVYDHTKLSEKDMEKSVLDYATPKWKGKIGYVSTSGAFLEQVVALSKMKGDKVALNWLKGLKENGKLYAKNSVALQAVENGEVPAALINNYYWYNLAKEKGVENLKSRLYFVRHQDPGALVSYSGAAVLKASKNQAEAQKFVDFLASKKGQEALVAARAEYPLRADVVSPFNLEPYEKLEAPVVSATTAQDKEHAIKLIEEAGLK | – | 519 | 520 | 0.01 | 0.03 |
| Fe(III) BP K85C NBD (conjugate, UniProt P35755 24-332, looked up, variant K85C, NBD label) Iron-utilization periplasmic …: DITVYNGQHKEAATAVAKAFEQETGIKVTLNSGKSEQLAGQLKEEGDKTPADVFYTEQTATFADLSEAGLLAPISEQTIQQTAQCGVPLAPKKDWIALSGRSRVVVYDHTKLSEKDMEKSVLDYATPKWKGKIGYVSTSGAFLEQVVALSKMKGDKVALNWLKGLKENGKLYAKNSVALQAVENGEVPAALINNYYWYNLAKEKGVENLKSRLYFVRHQDPGALVSYSGAAVLKASKNQAEAQKFVDFLASKKGQEALVAARAEYPLRADVVSPFNLEPYEKLEAPVVSATTAQDKEHAIKLIEEAGLK | – | 545 | 543 | 0.08 | 0.12 |
